From patent US9174951B2, “Glucose transporter inhibitors” (The Ohio State University Research Foundation, priority 2012, dated 2015)
Where two headings read alike, the source gives them in different places. Some entries share one result that the patent states for a list of compounds.

Tests used:
LNCaP cells = test: [3H]2-DG glucose uptake assay in LNCaP cells; assay type: cell-based, human; settings: each at 5 μM, 30 min of exposure
Experimental: Screening of the focused compound library to identify lead glucose uptake inhibitors.
Glucose Uptake Assay. LNCaP cells were seeded in six-well plates (3×10^5 cells/well) for 24 h. […] The cells were lysed in […] lysis buffer (10 mM Tris-HCl pH 8.0, 0.1% SDS) and aliquots were taken for measurement of radioactivity using a scintillation counter (Beckman LS6500).

GLUT1 = molecular target: T1, GLUT1 (Homo sapiens, UniProt P11166); test: [3H]2-DG uptake into LNCaP cells overexpressing GLUT1; assay type: cell-based
T1 construct: The full length GLUT1, GLUT4, and GLUT9 ORF cDNA clones were purchased from Addgene; EGFP (from the pEGFP-N2 vector); host or cells: LNCaP
T1 sequence (P11166 1-492): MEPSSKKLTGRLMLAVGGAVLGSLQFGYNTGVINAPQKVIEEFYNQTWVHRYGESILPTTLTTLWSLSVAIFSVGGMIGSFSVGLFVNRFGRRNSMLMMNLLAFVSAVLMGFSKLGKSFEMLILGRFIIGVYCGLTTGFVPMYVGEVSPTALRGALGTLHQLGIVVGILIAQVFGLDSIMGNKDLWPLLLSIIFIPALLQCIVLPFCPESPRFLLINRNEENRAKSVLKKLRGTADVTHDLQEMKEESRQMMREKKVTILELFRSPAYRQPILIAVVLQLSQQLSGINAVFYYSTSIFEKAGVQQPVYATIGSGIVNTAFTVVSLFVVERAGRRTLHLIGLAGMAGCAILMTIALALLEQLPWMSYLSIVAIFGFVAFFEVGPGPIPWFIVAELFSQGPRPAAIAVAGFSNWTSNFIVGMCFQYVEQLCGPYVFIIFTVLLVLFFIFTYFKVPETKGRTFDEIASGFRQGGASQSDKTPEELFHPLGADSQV
Source text: As information regarding the expression pattern of individual GLUT members in LNCaP cells was lacking, quantitative real time polymerase chain reaction (qRT-PCR) was used to assess the mRNA levels of the hypoxia-responsive GLUT1 and GLUT3, and three other representative GLUT members, including the class I GLUT2 and GLUT4 and the class II GLUT9. Among these five members, LNCaP cells expressed GLUT1 and, to a much lesser extent, GLUT9, while the mRNA levels of GLUTs2-4 were negligible (FIG. 3B). To examine the isoform specificity of these inhibitors, LNCaP cells were ectopically transfected with plasmids encoding GLUT1, GLUT3, GLUT4, or GLUT9 vis-à-vis the pCMV control vector so that the increased glucose uptake in GLUT-transfected cells relative to pCMV control cells was indicative of the activity of the ectopically expressed GLUT protein.
Glucose Uptake Assay. LNCaP cells were seeded in six-well plates (3×10^5 cells/well) for 24 h. Cells were washed twice with Krebs-Ringer phosphate buffer (126 mM NaCl, 2.5 mM KCl, 25 mM NaHCO3, 1.2 mM NaH2PO4, 1.2 mM MgCl2, 2.5 mM CaCl2, pH 7.4) and were then treated with individual agents in Krebs-Ringer phosphate buffer. After 1.5 h, glucose uptake was initiated by adding 1 mL Krebs-Ringer buffer containing […] [^3H]2-DG (PerkinElmer Life Science) and […] non-radioactive 2-DG and was terminated by washing with cold PBS. The cells were lysed in […] lysis buffer (10 mM Tris-HCl pH 8.0, 0.1% SDS) and aliquots were taken for measurement of radioactivity using a scintillation counter (Beckman LS6500).
Plasmid Construction, Transient Transfection and Immunoblotting. The full length GLUT1, GLUT4, and GLUT9 ORF cDNA clones were purchased from Addgene (Cambridge, Mass.) and GLUT3 ORF cDNA was purchased from Origene Technologies (Rockville, Md.). GLUT1, GLUT3, and GLUT9 were subcloned into the HindIII/SalI sites and GLUT4 was subcloned into the EcoRI/SalI sites of pEGFP-N2 expression vector (Clontech, Palo Alto, Calif.). Transfections were performed by electroporation using Nucleofector kit R of the Amaxa Nucleofector system (Lonza, Walkersville, Md.) according to the manufacturer's protocol. Immunoblotting was performed using cells lysates harvested with SDS lysis buffer (1% SDS, 50 mM Tris-HCl pH 8.0, 10 mM EDTA) containing 1× protease inhibitor cocktail (Sigma) and phosphatase inhibitor and were electrophoresed in 8˜12% SDS polyacrylamide gels and then transferred onto nitrocellulose membranes. After blotting in 5% nonfat dry milk, the membranes were incubated with primary antibodies at 1:1,000 dilution in TBS-Tween 20 overnight at 4° C., and then secondary antibodies conjugated with horseradish peroxidase at 1:5,000 dilution in TBS-Tween 20 for 1 hour at room temperature. Protein bands were visualized on X-ray film using an enhanced chemiluminescence system.

Row | Structure (SMILES) | inhibition of [3H]2-DG uptake into LNCaP cells (screening, in words) (LNCaP cells) | potency in GLUT1 inhibition (in words) (GLUT1) | potency in GLUT1 inhibition (in words) (GLUT1; listed as compound 28) | potency in GLUT1 inhibition (in words) (GLUT1; listed as compound 29) | potency in GLUT1 inhibition (in words) (GLUT1; listed as compound 30)
1 | CC1(CN2C(=O)S/C(=C\c3ccc(O)c(C(F)(F)F)c3)C2=O)CCCCC1 [Compound 4, (Z)-5-(4-hydroxy-3-(trifluoromethyl)benzylidene)-3-((1-methylcyclohexyl)methyl)thiazolidine-2,4-dione, reference compound] | inverse correlation with the bulkiness of the hydrophobic moiety |  |  |  | 
2 | O=C1SC(=Cc2ccc(O)c(C(F)(F)F)c2)C(=O)N1CC(CC(F)(F)F)CC(F)(F)F [Compound 28, 5-(4-Hydroxy-3-trifluoromethyl-benzylidene)-3-[4,4,4-trifluoro-2-(2,2,2-trifluoro-ethyl)-butyl]-thiazolidine-2,4-dione] |  | high potency | higher potencies than compound 5 |  | 
3 | O=C1SC(=Cc2ccc(O)c(C(F)(F)F)c2)C(=O)N1CC(F)(CC(F)(F)F)CC(F)(F)F [Compound 29, 5-(4-Hydroxy-3-trifluoromethyl-benzylidene)-3-[2,4,4,4-tetrafluoro-2-(2,2,2-trifluoro-ethyl)-butyl]-thiazolidine-2,4-dione] |  | high potency |  | higher potencies than compound 5 | 
4 | CC(CN1C(=O)S/C(=C\c2ccc(O)c(C(F)(F)F)c2)C1=O)(CC(F)(F)F)CC(F)(F)F [Compound 30, 5-(4-Hydroxy-3-trifluoromethyl-benzylidene)-3-[4,4,4-trifluoro-2-methyl-2-(2,2,2-trifluoro-ethyl)-butyl]-thiazolidine-2,4-dione] |  | high potency |  |  | higher potencies than compound 5
